{"source": "PubChem BioAssay AID1671195 | Yale University, 2021", "aim": "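Knockdowns that increase or decrease uptake of fluorescent LDL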 (primary screen)", "system": "human Huh7 hepatoma cells", "knock-down reagent": "siRNA pool against human genes, 18 nM", "timing": "about 2 to 2.5 days of knockdown, then 8 h LDL uptake", "treatment": "DiI-labelled LDL at 30 µg/ml for 8 h, in lipoprotein-deficient serum medium", "read-out": "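Fluorescent LDL signal imaged in cells, scaled to the plate median, robust z-score for each replicate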", "direction": "robust z-score: higher = more LDL uptake after knockdown", "active means": "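Active when two or more replicates show a robust z-score above 2 or below -2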", "note": "In all, the deposit lists about 22,000 reagents; below is an unselected part. Over the whole deposit, about 1,510 (6.9%) are marked active. 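Active includes knockdowns raising or lowering LDL uptake; positive z-scores mean more uptake, negative mean less.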 Unmarked entries are inactive. Reagent sequences are not shown."}
{"gene symbol": "RBPJL", "robust z-score, replicate 1": -0.615, "robust z-score, replicate 2": -0.51, "robust z-score, replicate 3": -1.02}
{"gene symbol": "SI", "robust z-score, replicate 1": -1.4, "robust z-score, replicate 2": -1, "robust z-score, replicate 3": -1.27}
{"gene symbol": "BUD31", "robust z-score, replicate 1": -0.797, "robust z-score, replicate 2": -0.971, "robust z-score, replicate 3": -1.21}
{"gene symbol": "LOC388174 (retired record)", "robust z-score, replicate 1": 1.6, "robust z-score, replicate 2": 1.6, "robust z-score, replicate 3": 1.81}
{"gene symbol": "MAPK8IP1", "robust z-score, replicate 1": -0.343, "robust z-score, replicate 2": 0.041, "robust z-score, replicate 3": -1.31}

Continued, starting with the last 2 of the part before.
{"gene symbol": "LOC388174 (retired record)", "robust z-score, replicate 1": 1.6, "robust z-score, replicate 2": 1.6, "robust z-score, replicate 3": 1.81}
{"gene symbol": "MAPK8IP1", "robust z-score, replicate 1": -0.343, "robust z-score, replicate 2": 0.041, "robust z-score, replicate 3": -1.31}
{"gene symbol": "H2BC21", "robust z-score, replicate 1": 1.28, "robust z-score, replicate 2": 1.28, "robust z-score, replicate 3": 1.84}
{"gene symbol": "LINC02908", "robust z-score, replicate 1": -1.58, "robust z-score, replicate 2": -1.7, "robust z-score, replicate 3": -1.3}
{"gene symbol": "LOC392179 (retired record)", "robust z-score, replicate 1": -1.36, "robust z-score, replicate 2": -1.86, "robust z-score, replicate 3": -1.7}
{"gene symbol": "PCNT", "robust z-score, replicate 1": -0.51, "robust z-score, replicate 2": -1.6, "robust z-score, replicate 3": -0.175}
{"gene symbol": "C15orf45", "robust z-score, replicate 1": -0.789, "robust z-score, replicate 2": -1.11, "robust z-score, replicate 3": -1.08}
{"gene symbol": "TSPAN33", "robust z-score, replicate 1": -0.756, "robust z-score, replicate 2": -0.97, "robust z-score, replicate 3": -1.03}
{"gene symbol": "PGPEP1", "robust z-score, replicate 1": 1.45, "robust z-score, replicate 2": 1.3, "robust z-score, replicate 3": 1.24}
